Experimental data as given in PubChem BioAssay AID504834 (National Center for Advancing Translational Sciences (NCATS), 2011).
The campaign covered roughly 320,000 compounds. About 22,000 (6.9%) were called active. Inconclusive means that the source gave no clear call. Such entries were picked first, then a sample of the others. Calls follow the shape of the dose curve; as a rule, active = well fitted inhibition curve with a large enough effect; inconclusive = small, poorly fitted or top-dose-only effect, or another doubt; inactive = no such curve, though single readings can be large or run the other way. A potency beside an inconclusive call is a rough fit, not a confirmed value.

Experiment: Primary qHTS for delayed death inhibitors of the malarial parasite plastid, 96 hour incubation
Conditions: P. falciparum luciferase reporter growth; series mostly up to 28.7 µM
Procedure, shortened: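 Compounds incubated with erythrocytes infected by luciferase-expressing P. falciparum (2% hematocrit, 0.05% parasitemia final) for 96 hours, 37 C in 5% CO2. Growth inhibition scored as decreased luciferase luminescence.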
% is scaled to controls: 0 for no effect and ±100 for the full control effect; potency is read from the fitted curve at half-maximal effect.

Q: Which Potency does the source give for `CC(C)CN(C(=O)COC(=O)CSc1ccccc1F)c1c(N)n(Cc2ccccc2)c(=O)[nH]c1=O` here?
A: inactive

Q: With `CCCCCCNC(=O)CCNC(=O)c1cc(OC)c(OC)c(OC)c1` as the compound, how does the Potency read?
A: inconclusive: 8.28 µM [inhibitor, partial curve, poor fit]

Q: Which Potency does the source give for `CCN1C(=O)C(Cc2nc3ccccc3c(=O)n2-c2ccccc2)c2ccccc21` (stereo unspecified) here?
A: inconclusive: 8.28 µM [inhibitor, partial curve, poor fit]

Q: Which Potency does the source give for `CN1C2=NCCN2C(=O)c2cc(Cl)ccc21` here?
A: inactive

Q: For `CCCCc1cc(=O)oc2cc(C)cc(OCC(=O)Nc3ccccn3)c12`, which Potency is on record?
A: inconclusive: 1.85 µM [inhibitor, full curve, poor fit]

Q: With `COc1cc(C(=O)N(C)Cc2cccc(OC)c2OC)ccc1OCC(=O)Nc1cccc(C(F)(F)F)c1` as the compound, how does the Potency read?
A: inconclusive: 11.7 µM [inhibitor, partial curve]

Q: For `COC(=O)c1ccccc1NC(=O)COc1ccc2c(c1)OCO2`, which Potency is on record?
A: inconclusive: 10.4 µM [inhibitor, single point]

Q: With `CC(C)n1c(=NC(=O)c2ccco2)c(C#N)cc2c(=O)n3ccccc3cc21` as the compound, how does the Potency read?
A: inconclusive: 18.5 µM [inhibitor, single point]

Q: For `Cc1ccc(C2(CC(=O)N3CCCC3)CCOC(C(C)C)C2)cc1` (stereo unspecified), which Potency is on record?
A: inconclusive: 0.828 µM [inhibitor, full curve, poor fit]

Q: With `CCc1nc(N2CCN(C(=O)c3ccco3)CC2)c2c3c(sc2n1)CCCC3` as the compound, how does the Potency read?
A: inactive

Q: For `Cc1nn(-c2ccc(C(=O)N3CCN(S(=O)(=O)c4ccccc4C(F)(F)F)CC3)cc2)c(C)c1Cl`, which Potency is on record?
A: inconclusive: 3.7 µM [inhibitor, full curve, poor fit]

Q: With `CCC(C)(C)NC(=O)CN(CC1CCCO1)C(=O)CNS(=O)(=O)c1ccccc1` (stereo unspecified) as the compound, how does the Potency read?
A: inconclusive: 0.0066 µM [inhibitor, full curve, poor fit]

Q: For `CCn1c(SCC(=O)NC2CCCCC2)nnc1C(C)NC(=O)c1ccccc1F` (stereo unspecified), which Potency is on record?
A: inconclusive: 1.47 µM [inhibitor, full curve, poor fit]

Q: For `Cn1cccc1/C=C1\SC(=Nc2cccc(O)c2)NC1=O`, which Potency is on record?
A: inconclusive: 13.1 µM [inhibitor, partial curve, poor fit]

Q: For `NC(=O)c1ccsc1NC(=O)COC(=O)c1cnccn1`, which Potency is on record?
A: inactive

Q: For `CCOC(=O)CN(C(=O)CN1CCC(n2nnc3cc(C)ccc32)CC1)c1ccccc1`, which Potency is on record?
A: active: 5.22 µM

Q: For `Cc1c(CC(=O)N[C@@H](C)C(=O)O)c(=O)oc2cc3oc4c(c3cc12)CCCC4`, which Potency is on record?
A: inactive

Q: Which Potency does the source give for `COCCNc1nc(SCC(=O)N2CCN(c3ccccc3OC)CC2)nc2ccccc12` here?
A: inactive

Q: For `Cc1ccccc1OCCNc1cc(N2CC(C)NC(C)C2)ccc1[N+](=O)[O-]` (stereo unspecified), which Potency is on record?
A: inconclusive: 14.7 µM [inhibitor, partial curve, poor fit]

Q: Which Potency does the source give for `CCOc1ccc(CCNC(=O)c2cccs2)cc1OCC` here?
A: inactive

Q: For `Cc1cc(C=C2C(=O)N(C)C(=S)N(C)C2=O)c(C)n1-c1ccncc1`, which Potency is on record?
A: inactive

Q: For `COc1ccc(S(=O)(=O)N(CC(=O)NC(C)C)Cc2ccccc2)cc1`, which Potency is on record?
A: inconclusive: 9.28 µM [inhibitor, partial curve, poor fit]

Q: Which Potency does the source give for `Cc1ccc(-n2ncc3c2CC(C)(C)CC3NC(=O)c2ccccn2)cc1` (stereo unspecified) here?
A: active: 14.7 µM

Q: For `O=C(CN1C(=O)NC2(CCOc3ccccc32)C1=O)NCc1ccc(F)cc1` (stereo unspecified), which Potency is on record?
A: inconclusive: 18.5 µM [inhibitor, single point]

Q: For `O=C(/C=C1\NC2(CCCC2)Cc2ccccc21)N1CCOCC1`, which Potency is on record?
A: inconclusive: 10.4 µM [inhibitor, single point]

Q: For `O=C1C2C(c3ccccc3)CC=CC2[C@H](c2ccc3ccccc3c2)N1Cc1ccccc1` (stereo partly specified), which Potency is on record?
A: inconclusive: 18.5 µM [inhibitor, single point]

Q: Which Potency does the source give for `O=C(Cn1cnc([N+](=O)[O-])n1)c1ccccc1` here?
A: inconclusive: 18.5 µM [inhibitor, single point]

Q: For `Cc1ccc(S(=O)(=O)c2nc(-c3ccccc3)oc2NCCCN2CCOCC2)cc1`, which Potency is on record?
A: inactive

Q: Which Potency does the source give for `COc1ccc(NC(C)=O)cc1S(=O)(=O)Nc1ccc(C(=O)N2CCCC2)cc1` here?
A: inconclusive: 2.94 µM [inhibitor, single point]

Q: For `Cc1ccccc1C(=O)NC(NC(=S)Nc1ccc(S(N)(=O)=O)cc1)C(Cl)(Cl)Cl` (stereo unspecified), which Potency is on record?
A: inconclusive: 11.7 µM [inhibitor, single point]

Q: Which Potency does the source give for `COc1ccc(/C=N\N=C2/SC(CC(=O)O)C(=O)N2c2ccc(O)cc2)cc1OC` (stereo unspecified) here?
A: inconclusive: 0.329 µM [inhibitor, full curve]

Q: With `CC(C)(C)C(=O)C(CO)(Oc1ccc(Cl)cc1)n1cncn1` (stereo unspecified) as the compound, how does the Potency read?
A: inconclusive: 18.5 µM [inhibitor, single point]

Q: Which Potency does the source give for `Cc1ccc(/C=N/NC(=O)c2ccncc2)o1` here?
A: inactive

Q: With `COc1cccc(CN2CCN(Cc3nc(-c4cccs4)oc3C)CC2CCO)c1` (stereo unspecified) as the compound, how does the Potency read?
A: inconclusive: 16.5 µM [inhibitor, single point]

Q: For `Cc1ccc(Nc2nc(-c3ccc(S(=O)(=O)N4CCCC4)cc3)cs2)cc1C`, which Potency is on record?
A: active: 1.65 µM

Q: Which Potency does the source give for `COc1ccc(CN2CCC(n3nccc3NC(=O)CCOc3ccccc3)CC2)cc1C` here?
A: inconclusive: 18.5 µM [inhibitor, single point]

Q: For `COc1ccc(C(=O)c2sc(Nc3ccc(NC(C)=O)cc3)nc2C)cc1`, which Potency is on record?
A: inconclusive: 13.1 µM [inhibitor, partial curve, poor fit]

Q: Which Potency does the source give for `N#Cc1nc(-c2ccco2)oc1NCc1ccco1` here?
A: inconclusive: 18.5 µM [inhibitor, single point]

Q: With `O=S(=O)(c1cccs1)N1CN(Cc2ccc(Cl)cc2)c2nc3ccccc3nc21` as the compound, how does the Potency read?
A: inconclusive: 0.738 µM [inhibitor, full curve, poor fit]

Q: Which Potency does the source give for `CCOC(=O)C1CCN(S(=O)(=O)c2ccc3c(c2)CC(=O)N3C)CC1` here?
A: inactive

Q: Which Potency does the source give for `Cc1ccc(NS(=O)(=O)c2ccc(-n3cccn3)cc2)nc1` here?
A: inconclusive: 9.28 µM [inhibitor, partial curve, poor fit]

Q: With `CCOc1ccccc1CNC(=O)CCNS(=O)(=O)c1ccc2[nH]c(=O)oc2c1` as the compound, how does the Potency read?
A: inconclusive: 20.8 µM [inhibitor, partial curve, poor fit]

Q: Which Potency does the source give for `CCC(C)(C)n1nnnc1C(c1ccc(OC)c(OC)c1)N1CCN(c2ccc(OC)cc2)CC1` (stereo unspecified) here?
A: inactive

Q: For `Cc1ccc(S(=O)(=O)Nc2cccc(/C=C/C(=O)O)c2)cc1`, which Potency is on record?
A: inconclusive: 13.1 µM [inhibitor, partial curve]

Q: With `Nc1ccccc1C(=O)N1CCCC1` as the compound, how does the Potency read?
A: inactive

Q: For `COc1ccc(CN(C)C(=O)c2ccccc2OCc2c(C)noc2C)c(OC)c1`, which Potency is on record?
A: inconclusive: 1.31 µM [inhibitor, full curve, poor fit]

Q: Which Potency does the source give for `Cc1ccc(NC2=CC(=O)CC(C)(C)C2)cc1Cl` here?
A: inactive

Q: For `O=C(NNc1nc2cc3c(cc2s1)OCO3)c1ccc(F)cc1`, which Potency is on record?
A: inconclusive: 18.5 µM [inhibitor, partial curve, poor fit]

Q: For `CC1CCCN(C(=O)CCNS(=O)(=O)c2ccc3c(c2)oc(=O)n3C)C1` (stereo unspecified), which Potency is on record?
A: inconclusive: 18.5 µM [inhibitor, single point]

Q: Which Potency does the source give for `COc1ccc(N(CC(=O)NC2CCCCC2)C(=O)CCC(=O)Nc2nc(C)cs2)cc1` here?
A: inconclusive: 13.1 µM [inhibitor, partial curve, poor fit]

Q: With `CN(C)C(=O)CN(c1ccc2c(c1)OCO2)S(C)(=O)=O` as the compound, how does the Potency read?
A: inconclusive: 0.0465 µM [inhibitor, full curve, poor fit]

Q: For `CCOc1ccc(OCC(=O)c2c(O)c3ccccc3oc2=O)cc1`, which Potency is on record?
A: inactive

Q: Which Potency does the source give for `O=C(NC(NNc1ccc([N+](=O)[O-])cc1)(C(F)(F)F)C(F)(F)F)c1ccc(Cl)cc1` here?
A: inconclusive: 0.0026 µM [inhibitor, full curve, poor fit]

Q: Which activity change, negative = inhibition does the source give for `Cc1cc(C)n(-c2nc(C(F)(F)F)nc3ccccc23)n1` here?
A: inactive: 14% [at 5.75 µM]

Q: With `Cc1ccc(N2CCN(/N=C/c3c(C)nn(-c4ccccc4)c3Cl)CC2)cc1` as the compound, how does the Potency read?
A: inconclusive: 18.5 µM [inhibitor, partial curve, poor fit]

Q: Which Potency does the source give for `CC(C)CSc1nc2ccccc2n1CC(=O)O` here?
A: inconclusive: 1.04 µM [inhibitor, full curve, poor fit]

Q: Which Potency does the source give for `Cc1noc(C)c1CS(=O)(=O)c1ccc([N+](=O)[O-])cc1` here?
A: inconclusive: 10.4 µM [inhibitor, single point]

Q: Which Potency does the source give for `CCCCCCC(=O)c1c(O)n(-c2ccc(OC)cc2)c(=O)[nH]c1=O` (tested in a mixture with another compound) here?
A: inconclusive: 10.4 µM [inhibitor, single point]

Q: For `Cc1ccccc1-c1nn(-c2ccc(F)cc2F)cc1CNCCN(C)C`, which Potency is on record?
A: active: 13.1 µM

Q: For `C/C(=N\N=C(N)N)c1cccc([N+](=O)[O-])c1`, which Potency is on record?
A: inconclusive: 13.1 µM [inhibitor, single point]

Q: For `Cc1ccccc1OCC(=O)Nc1ccccc1C(=O)NC1CC1`, which Potency is on record?
A: inconclusive: 8.28 µM [inhibitor, partial curve]

Q: With `O=C(N/N=C/c1cc2c(cc1Br)OCO2)c1ccccn1` as the compound, how does the Potency read?
A: inactive

Q: With `Oc1ccc(C[C@@H]2CNCCN2CC2(c3ccccc3)CC2)cc1` as the compound, how does the Potency read?
A: inconclusive: 18.5 µM [inhibitor, single point]

Q: For `NCCSc1c(-c2ccc(Cl)cc2)[nH]c2ccccc12`, which Potency is on record?
A: inconclusive: 5.22 µM [inhibitor, partial curve]

Q: Which Potency does the source give for `COC(=O)N/N=C\c1ccc(OC/C=C/c2ccccc2)c(OC)c1` here?
A: inconclusive: 4.15 µM [inhibitor, single point]

Q: With `Cc1cc(C)c(NC(=O)C2CCCN2CCOC(=O)c2cccc([N+](=O)[O-])c2)c(C)c1` (stereo unspecified) as the compound, how does the Potency read?
A: inconclusive: 11.7 µM [inhibitor, single point]
